Binding data for 4 substances are collected here from article PMC10120120.

Substitutions are numbered along the chain they refer to. These are yes or no findings as the source states them, for the method shown. In cells and extracts the contact can be indirect. Some entries that bind do so weakly or less than the wild type. Tags and fused reporters may be left off the sequences shown.

In assay [1] the target is T1, FLAG-GSDME (D270A)-HA (human) (UniProt O60443).
T1 sequence: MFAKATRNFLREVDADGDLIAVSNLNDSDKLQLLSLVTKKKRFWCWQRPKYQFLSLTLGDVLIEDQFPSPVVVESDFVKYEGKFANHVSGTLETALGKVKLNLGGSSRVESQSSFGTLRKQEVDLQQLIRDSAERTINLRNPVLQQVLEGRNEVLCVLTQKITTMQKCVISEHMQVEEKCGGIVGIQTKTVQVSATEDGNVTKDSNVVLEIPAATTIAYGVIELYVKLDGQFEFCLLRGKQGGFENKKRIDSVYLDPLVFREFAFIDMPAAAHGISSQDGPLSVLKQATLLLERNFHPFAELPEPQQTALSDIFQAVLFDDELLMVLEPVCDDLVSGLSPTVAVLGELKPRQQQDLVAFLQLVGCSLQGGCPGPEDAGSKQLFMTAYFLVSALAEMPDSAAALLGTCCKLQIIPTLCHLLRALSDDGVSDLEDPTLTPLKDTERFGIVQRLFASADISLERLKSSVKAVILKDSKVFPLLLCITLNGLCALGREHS
Description: co-IP; HEK293FT cells transfected with both plasmids for 24 h; IP with HA antibody, protein A beads; IP lysis buffer 20 mM Tris-HCl pH 7.5, 150 mM NaCl, 1% Triton; Western blot (Fig. 3D: EGFR and HA antibodies; Fig. 3H: FLAG and HA antibodies). (A western blot detects proteins with antibodies after separation by electrophoresis.)

Assay [2] concerns the target T2, FLAG-GSDME-HA (wild type gasdermin E, full length) (human) (UniProt O60443).
T2 sequence: T1 sequence with A270D
Described as above.

Assay [3] concerns the target T2, FLAG-GSDME-HA (wild type gasdermin E, full length) (human). Kind of assay: co-IP; HEK293FT cells transfected with both plasmids for 24 h; IP with FLAG antibody; Western blot with HA and FLAG antibodies (Fig. 3E).
The target of assay [4] is T1, FLAG-GSDME (D270A)-HA (human). Kind of assay: co-IP; H1299 cells transfected with GSDME plasmids for 24 h, with or without 4 uM doxorubicin for 8 h; IP with HA antibody; Western blot with EGFR and GSDME antibodies (Fig. 3F); EGFR endogenous.
In assay [5] the target is T2, FLAG-GSDME-HA (wild type gasdermin E, full length) (human). The assay is described as above.

As for “FLAG-EGFR (epidermal growth factor receptor) (from UniProt P00533 25-1210)”, the binding result in assay [1] and in assay [2] was “binds” each time. “HA-EGFR (from UniProt P00533 25-1210) (receptor)”: the binding entry in assay [3] is “binds”. For “EGFR cytoplasmic fragment (CT) (from UniProt P00533 669-1210) (domain or fragment)”, the binding entry in assay [2] is on record as “binds”. For “EGFR, endogenous in H1299 cells (from UniProt P00533 25-1210) (receptor)”, the binding result in assay [4] and in assay [5] was “binds” in each case.
